# At least one compound was matched to its structure with a doubt left.
# Test system: hair cells at basal, mid, and apex of the cochlea, ototoxic animal model administered kanamycin and furosemide
# Assay: Biopsy of hair cell viability in the kanamycin and furosemide ototoxic animal model (Experiments D1 and D3)
# Type: in vivo, C57/BL6 mice
# Conditions: PEP1 10 mg/kg or dexamethasone 15 mg/kg S.C., biopsy on day 14
smiles,measurement,setting,value
C[C@@H]1C[C@H]2[C@@H]3CCC4=CC(=O)C=C[C@]4(C)[C@@]3(F)[C@@H](O)C[C@]2(C)[C@@]1(O)C(=O)CO [dexamethasone],"viability of hair cells at basal, mid, and apex of the cochlea (confocal observation)","Experiment D1: dosing on days 1, 2, 3, FIG. 14",normal hair cells were observed
same,"viability of hair cells at basal, mid, and apex of the cochlea (confocal observation)","Experiment D3: dosing on days 3, 4, 5, FIG. 15",normal hair cells were observed
